Results: patent US8212036B2, “Maleate salts of 6-(5-chloro-2-pyridyl)-5-[(4-methyl-1-piperazinyl)carbonyloxy]-7-oxo-6,7-dihydro-5H-pyrrolo[3,4-b]pyrazine” (Sunovion Pharmaceuticals Inc., priority 2007, dated 2012)

Experiment: Open-label taste assessment (Flavor Profile bitterness) in healthy human subjects
Assay type: in vivo
Conditions: scale 0-3

Compound: CN1CCN(C(=O)O[C@H]2c3nccnc3C(=O)N2c2ccc(Cl)cn2)CC1.O=C(O)/C=C\C(=O)O [Maleate, (S)-Zopiclone Maleate]
- Human taste bitterness intensity (0.01 mg/5 mL in water, aftertaste t = 1 minutes): 1.2
- Human taste bitterness intensity (1.0 mg/5 mL in water, aftertaste t = 30 minutes): 1.2
